This note sets out measurements from US7888315B2, “Use of aspartic proteases in cosmetics and therapeutics” (L'Oreal, priority 2002, dated 2011).

The data set has as its system oxidized beta-chain of insulin. Kind of data set: Hydrolysis of the oxidized beta-chain of insulin followed by HPLC. In kind it is biochemical. As for the experimental part:
The oxidized beta-chain of insulin (Sigma) is used as substrate. The concentration is 50 μg in 1.5 ml of 0.1 M acetate buffer, pH 5.0. 50 μl of 12 kD SASPase (SEQ ID NO: 6) (approximately 1 mg/ml) purified by gel filtration are added so as to initialize the hydrolysis. Controls without enzyme or without substrate are used. Over time (1 h to 24 h at 37° C.), HPLCs are performed in order to follow the hydrolysis. The peaks that appear rapidly correspond to the main hydrolysis sites and those that only appear after 24 h correspond to the secondary sites. The peaks are collected after they have been fractionated, and are N-terminal sequences (EDMAN sequencing, Pasteur Institute).

B1: activated SASPase: truncated 12 kD activated form of the aspartic acid protease SASPase, sequence SEQ ID NO: 6 (protein, listed as Homo Sapiens)
chain: ANSMGKGYYLKGKIGKVPVRFLVDSGAQVSVVHPNLWEEVTDGDLDTLQPFENVVKVANGAEMKILGVWDTAVSLGKLKLKAQFLVANASAEEAIIGTDVLQDHNAILDFEHRTCTLKGKKFRLLPVGGSLEDEFDLE
Turning to B1, the “secondary hydrolysis sites in insulin beta-chain” value (peaks that appear only after 24 h) is “L/Y and Y/L”. The “main hydrolysis site in insulin beta-chain” value (peaks that appear rapidly, Edman sequencing) is reported as “E/A”.
